Test results from doi:10.1101/2024.12.05.626371.
These are yes or no findings as the source states them, for the method shown. Binding seen in cells or lysates may run through a third protein. Some entries that bind do so weakly or less than the wild type.

By UniProt entry, the sequences of proteins in these tests, tags left out. Residues count along the entry.
UniProt Q14766, residues 24-1721: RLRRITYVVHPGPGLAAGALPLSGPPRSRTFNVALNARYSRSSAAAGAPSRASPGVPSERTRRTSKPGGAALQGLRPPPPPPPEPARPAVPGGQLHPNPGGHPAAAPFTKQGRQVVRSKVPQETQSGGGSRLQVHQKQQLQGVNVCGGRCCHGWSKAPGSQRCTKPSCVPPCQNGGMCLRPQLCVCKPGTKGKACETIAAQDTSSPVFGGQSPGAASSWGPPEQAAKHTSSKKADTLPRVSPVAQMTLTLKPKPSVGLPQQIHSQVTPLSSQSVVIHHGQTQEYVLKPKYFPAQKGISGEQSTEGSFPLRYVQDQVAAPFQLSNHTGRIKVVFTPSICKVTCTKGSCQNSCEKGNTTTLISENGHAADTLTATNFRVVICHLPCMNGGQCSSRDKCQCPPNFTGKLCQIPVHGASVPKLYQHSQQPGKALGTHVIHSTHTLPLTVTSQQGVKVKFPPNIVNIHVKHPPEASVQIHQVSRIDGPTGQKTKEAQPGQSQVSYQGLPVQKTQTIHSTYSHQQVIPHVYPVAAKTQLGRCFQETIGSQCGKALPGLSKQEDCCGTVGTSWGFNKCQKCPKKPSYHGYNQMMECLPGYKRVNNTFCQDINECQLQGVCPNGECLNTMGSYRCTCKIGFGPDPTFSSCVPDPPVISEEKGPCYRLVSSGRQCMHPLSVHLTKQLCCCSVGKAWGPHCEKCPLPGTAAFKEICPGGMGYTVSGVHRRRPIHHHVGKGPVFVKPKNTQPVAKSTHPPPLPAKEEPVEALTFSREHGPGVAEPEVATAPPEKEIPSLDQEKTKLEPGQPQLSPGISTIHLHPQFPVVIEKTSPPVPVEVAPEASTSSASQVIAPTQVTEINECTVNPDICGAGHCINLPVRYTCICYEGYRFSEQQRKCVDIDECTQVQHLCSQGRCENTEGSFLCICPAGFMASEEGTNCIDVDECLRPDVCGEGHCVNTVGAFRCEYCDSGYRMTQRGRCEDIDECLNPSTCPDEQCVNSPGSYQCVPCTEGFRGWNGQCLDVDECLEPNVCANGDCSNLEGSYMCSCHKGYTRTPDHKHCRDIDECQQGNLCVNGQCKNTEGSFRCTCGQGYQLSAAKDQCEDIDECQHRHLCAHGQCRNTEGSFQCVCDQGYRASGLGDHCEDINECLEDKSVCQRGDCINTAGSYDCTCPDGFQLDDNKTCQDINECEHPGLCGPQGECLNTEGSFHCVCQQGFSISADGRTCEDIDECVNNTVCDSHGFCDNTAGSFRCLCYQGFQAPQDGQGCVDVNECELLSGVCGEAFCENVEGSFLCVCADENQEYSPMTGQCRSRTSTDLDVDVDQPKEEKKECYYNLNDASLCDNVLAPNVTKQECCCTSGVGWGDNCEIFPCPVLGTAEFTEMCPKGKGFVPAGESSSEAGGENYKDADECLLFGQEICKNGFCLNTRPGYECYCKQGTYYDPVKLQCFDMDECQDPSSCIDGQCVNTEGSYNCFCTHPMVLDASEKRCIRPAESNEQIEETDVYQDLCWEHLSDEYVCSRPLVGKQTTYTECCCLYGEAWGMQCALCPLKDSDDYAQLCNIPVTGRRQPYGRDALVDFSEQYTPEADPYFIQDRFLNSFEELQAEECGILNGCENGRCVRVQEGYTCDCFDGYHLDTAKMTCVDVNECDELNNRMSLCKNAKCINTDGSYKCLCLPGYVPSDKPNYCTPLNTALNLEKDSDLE

T1: Fibulin-1 (human (endogenous in lung tissue)) (UniProt P23142)
T1 sequence: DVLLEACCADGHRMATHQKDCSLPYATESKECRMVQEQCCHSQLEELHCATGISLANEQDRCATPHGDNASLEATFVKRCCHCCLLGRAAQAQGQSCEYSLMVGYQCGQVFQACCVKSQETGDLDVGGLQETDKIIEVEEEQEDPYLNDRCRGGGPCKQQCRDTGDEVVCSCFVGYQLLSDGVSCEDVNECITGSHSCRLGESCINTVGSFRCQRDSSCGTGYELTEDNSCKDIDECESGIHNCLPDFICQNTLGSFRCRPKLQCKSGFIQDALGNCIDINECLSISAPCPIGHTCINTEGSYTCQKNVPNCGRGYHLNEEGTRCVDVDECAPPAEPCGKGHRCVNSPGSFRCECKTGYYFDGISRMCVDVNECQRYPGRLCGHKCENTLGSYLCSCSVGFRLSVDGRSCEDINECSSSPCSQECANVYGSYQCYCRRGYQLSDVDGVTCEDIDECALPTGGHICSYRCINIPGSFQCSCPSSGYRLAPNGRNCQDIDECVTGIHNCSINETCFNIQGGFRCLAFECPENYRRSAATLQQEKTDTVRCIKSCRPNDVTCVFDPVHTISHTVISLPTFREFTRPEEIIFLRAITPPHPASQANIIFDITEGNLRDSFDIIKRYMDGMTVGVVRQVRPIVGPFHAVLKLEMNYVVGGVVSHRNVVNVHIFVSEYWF


Legend:
[1] = molecular target: T1, Fibulin-1 (human (endogenous in lung tissue)); experiment: proximity ligation
[2] = molecular target: Latent TGFβ binding protein 1 (human (endogenous in lung tissue)) (UniProt Q14766); experiment: proximity ligation

binding [1]	binding [2]	Molecule
binds		Latent TGFβ binding protein 1 (from UniProt Q14766 24-1721)
binds	no binding	Osteoprotegerin (protein, UniProt O00300 22-401) ETFPPKYLHYDEETSHQLLCDKCPPGTYLKQHCTAKWKTVCAPCPDHYYTDSWHTSDECLYCSPVCKELQYVKQECNRTHNRVCECKEGRYLEIEFCLKHRSCPPGFGVVQAGTPERNTVCKRCPDGFFSNETSSKAPCRKHTNCSVFGLLLTQKGNATHDNICSGNSESTQKCGIDVTLCEEAFFRFAVPTKFTPNWLSVLVDNLPGTKVNAESVERIKRQHSSQEQTFQLLKLWKHQNKDQDIVKKIIQDIDLCENSVQRHIGHANLTFEQLRSLMESLPGKKVGAEDIEKTIKACKPSDQILKLLSLWRIKNGDQDTLKGLMHALKHSKTYHFPKTVTQSLKKTIRFLHSFTMYKLYQKLFLEMIGNQVQSVKISCL
